Earlier results, collected in patent publication US20100022553A1, “Therapeutic Combination Comprising an Aurora Kinase Inhibitor and Imatinib” (NERVIANO MEDICAL SCIENCES S.R.L., priority 2008, published 2010).
At least one compound was matched to its structure with a doubt left.

System: CD34+ cells from CML patients in chronic phase or blast crisis
Details: including those bearing the T315I mutation; cited from earlier work

CO[C@@H](C(=O)N1Cc2[nH]nc(NC(=O)c3ccc(N4CCN(C)CC4)cc3)c2C1)c1ccccc1 [Compound 1, N-[5-(2-Methoxy-2-phenyl-acetyl)-1,4,5,6-tetrahydro-pyrrolo[3,4-c]pyrazol-3-yl]-4-(4-methyl-piperazin-1yl)-benzamide]
antiproliferative activity: Strong antiproliferative activity
